Among the data in patent US20240350654A1, “NANOCARRIERS FOR TARGETED DELIVERY OF THERAPEUTICS” (Northwestern University, priority 2023, published 2024) are IC50 values, retold here.

≈ marks a conversion by molar mass, not a printed value.

Common to all, as to assay type: cell-based
The test system of assay [1] is ROSA human mast cell line (FIG. 1A). As to the kind of experiment: MTT assay, ROSA mast cell line (FIG. 1A). Particulars: n=3, read-out: IC50 (cell viability, MTT). In general terms: Tetrazolium dyes change colour on reduction, which living cells bring about.
The subject of assay [2] is ROSA human mast cell line (FIG. 1B). As to the kind of experiment: MTT assay, ROSA mast cell line (FIG. 1B). Particulars: n=2, read-out: IC50 (cell viability, MTT).
Assay [3] concerns LUVA human mast cells. As to the kind of experiment: MTT assay, LUVA mast cells (FIG. 1C). Particulars: Mast cell, n=3, read-out: IC50 (cell viability, MTT).
The subject of assay [4] is Primary human skin mast cells. As to the kind of experiment: MTT assay, primary human skin mast cells (FIG. 1D). Conditions: Mast cell, n=2, read-out: IC50 (cell viability, MTT).

One may read the IC50 as the midpoint of a concentration-inhibition curve. For `CO[C@@H]1[C@H](N(C)C(=O)c2ccccc2)C[C@H]2O[C@]1(C)n1c3ccccc3c3c4c(c5c6ccccc6n2c5c31)C(=O)NC4` [midostaurin], the IC50 in assay [1] was found to be 0.68 µg/mL (≈ 1.19 µM); in assay [2] it was 1.37 µg/mL (≈ 2.4 µM); in assay [3], 4.1 µg/mL (≈ 7.18 µM); in assay [4] it was 1.5 µg/mL (≈ 2.63 µM).
